Reference: PMC7026653

Key:
[1] = biological target: T1, GFP tagged Srp (Drosophila) (UniProt P52172); experiment: co-IP; S2 cell extracts in E1A buffer (50 mM HEPES, 250 mM NaCl, 0.1% NP40), sonicated; IP with anti-GFP (Chromotek) of the GFP-tagged protein, western blot of the endogenous partner; with or without Benzonase (1000 units, overnight)
T1 sequence: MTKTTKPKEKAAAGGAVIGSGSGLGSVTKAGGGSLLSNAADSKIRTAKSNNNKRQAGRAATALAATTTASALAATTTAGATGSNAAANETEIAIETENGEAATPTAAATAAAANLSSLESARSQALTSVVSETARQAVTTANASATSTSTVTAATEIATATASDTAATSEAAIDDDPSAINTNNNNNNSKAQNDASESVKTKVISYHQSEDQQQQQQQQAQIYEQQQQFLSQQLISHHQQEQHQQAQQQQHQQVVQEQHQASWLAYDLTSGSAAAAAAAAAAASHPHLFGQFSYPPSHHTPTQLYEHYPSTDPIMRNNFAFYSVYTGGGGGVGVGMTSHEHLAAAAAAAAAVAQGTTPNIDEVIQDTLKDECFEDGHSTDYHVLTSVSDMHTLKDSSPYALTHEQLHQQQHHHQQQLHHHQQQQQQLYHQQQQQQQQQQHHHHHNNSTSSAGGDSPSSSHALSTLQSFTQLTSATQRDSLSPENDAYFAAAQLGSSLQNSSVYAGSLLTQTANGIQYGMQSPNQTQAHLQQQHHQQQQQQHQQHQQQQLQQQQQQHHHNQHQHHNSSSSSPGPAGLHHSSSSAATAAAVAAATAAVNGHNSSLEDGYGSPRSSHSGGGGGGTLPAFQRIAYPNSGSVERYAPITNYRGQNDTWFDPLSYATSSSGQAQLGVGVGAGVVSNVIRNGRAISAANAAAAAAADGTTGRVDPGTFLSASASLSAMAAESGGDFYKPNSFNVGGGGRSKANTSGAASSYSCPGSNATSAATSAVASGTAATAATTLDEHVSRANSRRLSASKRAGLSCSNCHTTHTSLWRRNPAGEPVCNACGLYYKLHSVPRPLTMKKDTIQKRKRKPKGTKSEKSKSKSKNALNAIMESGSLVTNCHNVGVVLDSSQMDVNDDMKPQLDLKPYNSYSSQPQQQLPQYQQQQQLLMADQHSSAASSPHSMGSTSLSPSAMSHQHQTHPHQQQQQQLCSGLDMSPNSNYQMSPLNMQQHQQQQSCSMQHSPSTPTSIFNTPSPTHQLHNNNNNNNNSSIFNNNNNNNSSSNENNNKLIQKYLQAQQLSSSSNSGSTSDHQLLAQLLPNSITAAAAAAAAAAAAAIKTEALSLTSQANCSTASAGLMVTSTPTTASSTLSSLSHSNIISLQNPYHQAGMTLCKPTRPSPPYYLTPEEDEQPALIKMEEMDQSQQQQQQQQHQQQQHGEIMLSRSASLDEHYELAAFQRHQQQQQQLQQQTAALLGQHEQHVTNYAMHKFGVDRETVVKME

[2] = biological target: T2, endogenous Piwi (P-element induced wimpy testis) (Drosophila (endogenous in ovaries of w1118 flies)) (UniProt Q9VKM1); experiment: co-IP; extracts of ovaries from w1118 flies in E1A buffer (50 mM HEPES, 250 mM NaCl, 0.1% NP40), sonicated; reciprocal IP with anti-dLsd1 or anti-Piwi (Santa-Cruz), IgG as control, western blot; with or without Benzonase (1500 units, overnight)
T2 sequence: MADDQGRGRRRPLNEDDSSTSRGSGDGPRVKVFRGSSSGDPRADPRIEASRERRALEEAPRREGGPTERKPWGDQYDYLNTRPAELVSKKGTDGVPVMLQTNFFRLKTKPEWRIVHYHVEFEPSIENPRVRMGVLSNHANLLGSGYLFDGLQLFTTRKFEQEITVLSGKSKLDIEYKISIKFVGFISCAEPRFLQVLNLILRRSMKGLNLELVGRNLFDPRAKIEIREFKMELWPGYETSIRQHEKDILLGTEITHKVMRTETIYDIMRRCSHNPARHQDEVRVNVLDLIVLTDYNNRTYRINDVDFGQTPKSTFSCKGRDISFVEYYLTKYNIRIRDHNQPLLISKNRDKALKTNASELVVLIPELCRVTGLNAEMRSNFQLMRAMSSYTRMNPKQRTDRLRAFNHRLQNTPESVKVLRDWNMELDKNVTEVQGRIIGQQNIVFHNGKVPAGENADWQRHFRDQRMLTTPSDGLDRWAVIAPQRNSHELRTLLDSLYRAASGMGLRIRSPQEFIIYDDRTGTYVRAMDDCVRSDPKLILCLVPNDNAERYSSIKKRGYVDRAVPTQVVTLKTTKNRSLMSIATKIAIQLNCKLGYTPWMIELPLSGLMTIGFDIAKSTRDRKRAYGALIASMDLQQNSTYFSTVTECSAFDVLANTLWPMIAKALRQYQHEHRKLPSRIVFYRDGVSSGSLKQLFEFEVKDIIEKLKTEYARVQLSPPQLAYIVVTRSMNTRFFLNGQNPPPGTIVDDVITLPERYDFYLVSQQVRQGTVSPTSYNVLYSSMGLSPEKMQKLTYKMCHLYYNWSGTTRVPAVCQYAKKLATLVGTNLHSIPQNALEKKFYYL

[3] = biological target: GFP tagged dLsd1 (Drosophila); experiment: co-IP; S2 cell extracts in E1A buffer (50 mM HEPES, 250 mM NaCl, 0.1% NP40), sonicated; IP with anti-GFP (Chromotek) of the GFP-tagged protein, western blot of the endogenous partner; with or without Benzonase (1000 units, overnight)
[4] = biological target: endogenous dLsd1 (ovaries) (Drosophila (endogenous in ovaries of w1118 flies)); experiment: co-IP; extracts of ovaries from w1118 flies in E1A buffer (50 mM HEPES, 250 mM NaCl, 0.1% NP40), sonicated; reciprocal IP with anti-dLsd1 or anti-Piwi (Santa-Cruz), IgG as control, western blot; with or without Benzonase (1500 units, overnight)

## endogenous dLsd1 (S2 cells) (Drosophila (endogenous in S2 cells))
[1]
  binding: binds

## endogenous dLsd1 (ovaries)
[2]
  binding: binds weakly

B1: endogenous Serpent (Srp) (protein, UniProt P52172 1-1264)
chain: T1 sequence
[3]
  binding: binds

B2: endogenous Piwi (P-element induced wimpy testis) (protein, UniProt Q9VKM1 1-843)
chain: T2 sequence
[4]
  binding: binds weakly

Results are given in words; binding and its absence hold for the method and conditions named. In cells and extracts the contact can be indirect. Binding can be weak; no strength is given. For some of these results: Where a sequence is shown, tags or fusion partners need not be part of it.
